Variants at the background level are over-represented here.
Key:
[1] = test system: biotinyl-Leu-oxazolone; test: self-aminoacylation, catalytic enhancement (BLO) (fold over background); higher = more active; k-Seq, kA / k0A0; sequences stand for … in GGGAAUGGAUCCACAUCUACGAAUUC…UUCACUGCAGACUUGACGAAGCUG
Procedure, shortened: (§1)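 Catalytic enhancement equals the median kA over the uncatalyzed rate, the latter read from the low-activity peak of a bimodal Gaussian fit. Values of kA came from fitting each sequence's fraction reacted to a pseudo-first-order model, with 1000 bootstraps. Reacted RNA was captured with streptavidin and quantified by triplicate qPCR and Illumina sequencing after 90 minutes at room temperature with 2–1250 μM biotinyl-aminoacyl-oxazolone and 0.43 μM mutagenized RNA pools bearing a 21-nt variable region.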

[2] = test system: biotinyl-Trp-oxazolone; test: self-aminoacylation, catalytic enhancement (BWO) (fold over background); higher = more active; k-Seq, kA / k0A0; sequences stand for … in GGGAAUGGAUCCACAUCUACGAAUUC…UUCACUGCAGACUUGACGAAGCUG
Procedure, shortened: as §1

[3] = test system: biotinyl-Val-oxazolone; test: self-aminoacylation, catalytic enhancement (BVO) (fold over background); higher = more active; k-Seq, kA / k0A0; sequences stand for … in GGGAAUGGAUCCACAUCUACGAAUUC…UUCACUGCAGACUUGACGAAGCUG
Procedure, shortened: as §1

[4] = test system: biotinyl-Met-oxazolone; test: self-aminoacylation, catalytic enhancement (BMO) (fold over background); higher = more active; k-Seq, kA / k0A0; sequences stand for … in GGGAAUGGAUCCACAUCUACGAAUUC…UUCACUGCAGACUUGACGAAGCUG
Procedure, shortened: as §1

[5] = test system: biotinyl-Ile-oxazolone; test: self-aminoacylation, catalytic enhancement (BIO) (fold over background); higher = more active; k-Seq, kA / k0A0; sequences stand for … in GGGAAUGGAUCCACAUCUACGAAUUC…UUCACUGCAGACUUGACGAAGCUG
Procedure, shortened: as §1

[6] = test system: biotinyl-Phe-oxazolone; test: self-aminoacylation, catalytic enhancement (BFO) (fold over background); higher = more active; k-Seq, kA / k0A0; sequences stand for … in GGGAAUGGAUCCACAUCUACGAAUUC…UUCACUGCAGACUUGACGAAGCUG
Procedure, shortened: as §1

Row | Sequence | self-aminoacylation [1] | self-aminoacylation [2] | self-aminoacylation [3] | self-aminoacylation [4] | self-aminoacylation [5] | self-aminoacylation [6]
1 | CUACUUCAAACAAUAUGUCUG [Fam1A.1 aminoacylation ribozyme variant] | 0.697 | 0.505 | 0.81 | 0.648 | 0.805 | 1.13
2 | CUACUUCAAACAAUCGAACUG [Fam1A.1 aminoacylation ribozyme variant] | 0.595 | 0.468 | 0.595 | 0.617 | 0.683 | 0.805
3 | CUACUUCAAACAAUCGGGAUG [Fam1A.1 aminoacylation ribozyme variant] | 1.19 | 4.46 | 1.02 | 0.844 | 0.904 | 5.85
4 | CUACUUCAAACAAUCGGGCAG [Fam1A.1 aminoacylation ribozyme variant] | 0.818 | 0.704 | 0.898 | 0.864 | 0.742 | 1.06
5 | CUACUUCAAACAAUCGUUCUC [Fam1A.1 aminoacylation ribozyme variant] | 0.435 | 0.523 | 0.642 | 0.483 | 0.466 | 1.2
6 | CUACUUCAAACACUAGGUCUG [Fam1A.1 aminoacylation ribozyme variant] | 0.607 | 0.492 | 0.862 | 0.592 | 0.774 | 0.602
7 | CUACUUCAAACACUCGGUCUG [Fam1A.1 aminoacylation ribozyme variant] | 0.829 | 0.787 | 0.969 | 0.828 | 0.906 | 0.87
8 | CUACUUCAAACACUCGGUUUG [Fam1A.1 aminoacylation ribozyme variant] | 0.88 | 0.897 | 1.17 | 0.897 | 1.18 | 1.22
9 | CUACUUCAAACACUCGUUCUG [Fam1A.1 aminoacylation ribozyme variant] | 0.492 | 0.444 | 0.635 | 0.499 | 0.595 | 0.429
10 | CUACUUCAAACAGACGGUCUG [Fam1A.1 aminoacylation ribozyme variant] | 0.628 | 0.435 | 0.66 | 0.627 | 0.754 | 1.06
11 | CUACUUCAAACAGCCGGUCUG [Fam1A.1 aminoacylation ribozyme variant] | 1.05 | 0.804 | 1.07 | 1.15 | 1.06 | 0.468
12 | CUACUUCAAACAGUCAGUCUG [Fam1A.1 aminoacylation ribozyme variant] | 0.658 | 0.564 | 0.711 | 0.571 | 0.701 | 0.561
13 | CUACUUCAAACAGUCCGUCUG [Fam1A.1 aminoacylation ribozyme variant] | 0.652 | 0.486 | 0.68 | 0.698 | 0.872 | 0.875
14 | CUACUUCAAACAGUCGAUCUG [Fam1A.1 aminoacylation ribozyme variant] | 0.585 | 0.471 | 0.703 | 0.663 | 0.728 | 0.789
15 | CUACUUCAAACAGUCGGGCUG [Fam1A.1 aminoacylation ribozyme variant] | 1.56 | 1.61 | 1.49 | 1.23 | 1.65 | 0.993
16 | CUACUUCAAACAGUCGGUCCG [Fam1A.1 aminoacylation ribozyme variant] | 1.1 | 0.608 | 1.02 | 0.943 | 0.887 | 0.369
17 | CUACUUCAAACCUUCGGUCUG [Fam1A.1 aminoacylation ribozyme variant] | 1.12 | 0.649 | 1.1 | 1.1 | 1.05 | 0.832
18 | CUACUUCAAACGUUCGGUCUG [Fam1A.1 aminoacylation ribozyme variant] | 0.695 | 0.895 | 0.816 | 0.565 | 0.686 | 0.336
19 | CUACUUCAAACUAUCGGUGUG [Fam1A.1 aminoacylation ribozyme variant] | 1.41 | 0.784 | 1.14 | 1.3 | 1.09 | 0.584
20 | CUACUUCAAAUGAUCGGUCUG [Fam1A.1 aminoacylation ribozyme variant] | 0.76 | 1.22 | 1.06 | 0.864 | 0.972 | 1.17
21 | CUACUUCAACCACUCGGUCUG [Fam1A.1 aminoacylation ribozyme variant] | 0.948 | 0.862 | 0.841 | 0.701 | 0.74 | 0.905
22 | CUACUUCAACCCAUCGGUCUG [Fam1A.1 aminoacylation ribozyme variant] | 0.943 | 0.838 | 0.983 | 0.722 | 0.983 | 0.647
23 | CUACUUCACACAAUCAGUCUG [Fam1A.1 aminoacylation ribozyme variant] | 0.595 | 0.65 | 0.799 | 0.626 | 0.729 | 1.2
24 | CUACUUCACACAAUCGGUCGG [Fam1A.1 aminoacylation ribozyme variant] | 1.36 | 1.09 | 0.981 | 1.4 | 1.26 | 0.779
25 | CUACUUCACACAAUCGGUCUC [Fam1A.1 aminoacylation ribozyme variant] | 0.611 | 0.725 | 0.675 | 0.555 | 0.739 | 0.787
26 | CUACUUCACACUAUCGGUCUG [Fam1A.1 aminoacylation ribozyme variant] | 0.713 | 0.49 | 0.857 | 0.588 | 0.733 | 0.94

Row | Sequence | self-aminoacylation [1] | self-aminoacylation [2] | self-aminoacylation [3] | self-aminoacylation [4] | self-aminoacylation [5] | self-aminoacylation [6]
27 | CUACUUCCAACCAUCGGUCUG [Fam1A.1 aminoacylation ribozyme variant] | 0.813 | 0.433 | 0.789 | 0.765 | 0.736 | 0.682
28 | CUACUUCCAAUAAUCGGUCUG [Fam1A.1 aminoacylation ribozyme variant] | 0.926 | 0.937 | 0.98 | 0.849 | 0.755 | 1.32
29 | CUACUUCGAAAAAUCGGUCUG [Fam1A.1 aminoacylation ribozyme variant] | 0.674 | 0.503 | 0.665 | 0.824 | 0.724 | 0.507
30 | CUACUUCGAACAAUCGCUCUG [Fam1A.1 aminoacylation ribozyme variant] | 0.651 | 0.756 | 0.779 | 0.921 | 0.81 | 1.36
31 | CUACUUCGAACAAUCGGUAUG [Fam1A.1 aminoacylation ribozyme variant] | 0.677 | 0.562 | 0.586 | 0.491 | 0.675 | 0.459
32 | CUACUUCGAAUAAUCGGUCUG [Fam1A.1 aminoacylation ribozyme variant] | 0.702 | 0.44 | 0.636 | 0.684 | 0.624 | 0.513
33 | CUACUUCUAACAAUCGGUAUG [Fam1A.1 aminoacylation ribozyme variant] | 0.529 | 0.428 | 0.533 | 0.537 | 0.584 | 0.695
34 | CUACUUCUAACAAUUGGUCUG [Fam1A.1 aminoacylation ribozyme variant] | 0.719 | 0.367 | 0.705 | 0.633 | 0.777 | 0.669
35 | CUACUUCUACCAAUCGGUCUG [Fam1A.1 aminoacylation ribozyme variant] | 0.684 | 0.637 | 0.692 | 0.69 | 0.719 | 0.773
36 | CUACUUGAAACAAUCAGUCUG [Fam1A.1 aminoacylation ribozyme variant] | 0.683 | 0.451 | 0.809 | 0.65 | 0.748 | 0.584
37 | CUACUUGAAACAAUCGAUCUG [Fam1A.1 aminoacylation ribozyme variant] | 0.734 | 0.515 | 0.811 | 0.732 | 0.811 | 0.528
38 | CUACUUGAAACAAUCGGUCAG [Fam1A.1 aminoacylation ribozyme variant] | 0.681 | 0.487 | 0.641 | 0.588 | 0.701 | 0.509
39 | CUACUUGAAACAAUCGGUCUC [Fam1A.1 aminoacylation ribozyme variant] | 0.657 | 0.561 | 0.688 | 0.827 | 0.789 | 0.658
40 | CUACUUGAAACAAUUGGUCUG [Fam1A.1 aminoacylation ribozyme variant] | 1.03 | 0.892 | 1.1 | 1.31 | 1.17 | 0.632
41 | CUACUUGAAACAGUCGGUCUG [Fam1A.1 aminoacylation ribozyme variant] | 1.26 | 1.08 | 1.2 | 1.14 | 1.09 | 0.659
42 | CUACUUGAAACCAUCGGUCUG [Fam1A.1 aminoacylation ribozyme variant] | 0.736 | 0.929 | 0.981 | 0.916 | 0.986 | 0.91
43 | CUACUUUAAACAAUCGGUCUC [Fam1A.1 aminoacylation ribozyme variant] | 0.905 | 0.649 | 0.809 | 0.719 | 0.819 | 1.09
44 | CUACUUUAAACAAUCGGUCUG [Fam1A.1 aminoacylation ribozyme variant] | 0.717 | 0.917 | 0.789 | 0.827 | 0.819 | 1.34
45 | CUACUUUAAACAAUCGGUCUU [Fam1A.1 aminoacylation ribozyme variant] | 0.738 | 0.6 | 0.885 | 1.09 | 0.888 | 0.805
46 | CUAGUUCAAACCAUCGGUCUG [Fam1A.1 aminoacylation ribozyme variant] | 1.08 | 1.45 | 1.17 | 1.07 | 1.36 | 1.11
47 | CUAUUCCAAACAAUCGGUCUG [Fam1A.1 aminoacylation ribozyme variant] | 0.839 | 0.703 | 0.767 | 0.841 | 0.927 | 0.757
48 | CUAUUUCAAACAAUCGAUCUG [Fam1A.1 aminoacylation ribozyme variant] | 0.469 | 0.483 | 0.573 | 0.57 | 0.662 | 0.873
49 | CUAUUUCAAACGAUCGGUCUG [Fam1A.1 aminoacylation ribozyme variant] | 0.788 | 1.03 | 0.708 | 0.884 | 0.787 | 0.608
50 | CUAUUUUAAACAAUCGGUCUG [Fam1A.1 aminoacylation ribozyme variant] | 0.894 | 0.668 | 0.977 | 1.02 | 0.99 | 0.762
51 | CUCCACUUCAAGCAAUCGGUC [Fam1B.1 aminoacylation ribozyme variant] | 2.07 | 27.6 | 1.45 | 1.27 | 1.37 | 50.4

From the supplement of paper PMC9233669
